Measurements reported in PubChem BioAssay AID330 (DTP/NCI, 2004).
The list is a part of this screen's results and no random one: it is rich in T/C values a quarter to a half above the control, in often repeated tests (any T/C) and in doses without a T/C. Other doses and runs of a compound stand elsewhere. T/C is the treated group as % of the vehicle group. Some doses have a count of surviving animals in place of a T/C: the source files T/C as zero there, which appears to mark a toxic dose or a test without result, not a measured value. Some doses without a T/C left all or most animals alive at the check, yet need not have been tolerated: the source hardly ever lists a survival T/C far under the control, and the zero likely stands for such cases as well. Survivors were counted at the toxicity check, usually on the fifth day, unless a day is given; later deaths do not show. Schedules are NCI's codes, read here as Q, the interval in days (D) or hours (H), X, the number of doses. Some doses were run more than once; the results are listed from low to high. Some molecules as drawn cover several salts, stereoisomers or complexes of the source; a dose is that of the sample tested. For survival time, the PubChem record calls one and a half times the control and up active, and a quarter to a half above the control has no call in these data; cut-offs in other NCI protocols can differ. Some T/C values carry the count of animals alive at the toxicity check (mostly the fifth day); without a count, all were alive then.

Test system: P388 leukemia ip, CD2F1 mice, survival T/C
Experiment: NCI In Vivo Anticancer Drug Screen. Data for tumor model P388 Leukemia (intraperitoneal) in CD2F1 (CDF1) mice
Conditions: T/C endpoint: median survival time, higher T/C = longer survival
[1] = dose: 50.0 mg/kg/injection, schedule: Q01DX009 (ip), vehicle: saline
[2] = dose: 100.0 mg/kg/injection, schedule: Q01DX009 (ip), vehicle: saline
[3] = dose: 200.0 mg/kg/injection, schedule: Q01DX009 (ip), vehicle: saline
[4] = dose: 240.0 mg/kg/injection, schedule: Q01DX005 (ip), vehicle: Klucel (hydroxypropylcellulose) (HPC)
[5] = dose: 25.0 mg/kg/injection, schedule: Q01DX009 (ip), vehicle: saline

For `COc1ccc(C[C@H](N)C(=O)NC2C(CO)OC(n3cnc4c(N(C)C)ncnc43)C2O)cc1` (stereo partly specified), the T/C (dose: 8.0 mg/kg/injection, schedule: Q03HX024 (ip), vehicle: saline) was 141 % of control, the survivor count (dose: 32.0 mg/kg/injection, schedule: Q03HX024 (ip), vehicle: saline) was 4 of 6 and the T/C (dose: 33.0 mg/kg/injection, schedule: Q01DX009 (ip), vehicle: saline with Tween-80, evaluated on day 30) was 129 % of control. For the same compound, the T/C (dose: 33.0 mg/kg/injection, schedule: Q01DX009 (ip), vehicle: saline with Tween-80, evaluated on day 60) was 132 % of control, the T/C (dose: 50.0 mg/kg/injection, schedule: Q01DX009 (ip), vehicle: saline with Tween-80, evaluated on day 30) was 130 % of control and the T/C (dose: 50.0 mg/kg/injection, schedule: Q01DX009 (ip), vehicle: saline with Tween-80, evaluated on day 45) was 128 % of control. The T/C (dose: 50.0 mg/kg/injection, schedule: Q01DX009 (ip), vehicle: saline with Tween-80, evaluated on day 60) was 134 % of control, the survivor count (dose: 64.0 mg/kg/injection, schedule: Q03HX024 (ip), vehicle: saline) was 1 of 6 and the T/C (dose: 66.0 mg/kg/injection, schedule: Q01DX009 (ip), vehicle: saline sonified) was 127 % of control. For the same compound, the T/C (dose: 75.0 mg/kg/injection, schedule: Q01DX009 (ip), vehicle: saline with Tween-80, evaluated on day 30) was 145 % of control, the T/C (dose: 75.0 mg/kg/injection, schedule: Q01DX009 (ip), vehicle: saline with Tween-80, evaluated on day 45) was 137 % of control and the T/C (dose: 75.0 mg/kg/injection, schedule: Q01DX009 (ip), vehicle: saline with Tween-80, evaluated on day 60) was 138 % of control. For the same compound, the T/C (dose: 100.0 mg/kg/injection, schedule: Q01DX009 (ip), vehicle: saline sonified, evaluated on day 20) was 145 % of control, the T/C (dose: 100.0 mg/kg/injection, schedule: Q01DX009 (ip), vehicle: saline sonified, evaluated on day 30) was 131 % of control [5 of 6 alive] and the T/C (dose: 112.0 mg/kg/injection, schedule: Q01DX009 (ip), vehicle: saline with Tween-80, evaluated on day 30) was 145 % of control. For the same compound, the T/C (dose: 112.0 mg/kg/injection, schedule: Q01DX009 (ip), vehicle: saline with Tween-80, evaluated on day 45) was 146 % of control, the T/C (dose: 112.0 mg/kg/injection, schedule: Q01DX009 (ip), vehicle: saline with Tween-80, evaluated on day 60) was 147 % of control and the survivor count (dose: 120.0 mg/kg/injection, schedule: Q01DX009 (ip), vehicle: water) was 6 of 6. For the same compound, the survivor count (dose: 140.0 mg/kg/injection, schedule: Q01DX009 (ip), vehicle: water) was 6 of 6, the survivor count (dose: 160.0 mg/kg/injection, schedule: Q01DX009 (ip), vehicle: water) was 6 of 6 and the survivor count (dose: 180.0 mg/kg/injection, schedule: Q01DX009 (ip), vehicle: water) was 4 of 6. The survivor count (dose: 200.0 mg/kg/injection, schedule: Q01DX009 (ip), vehicle: saline sonified) was 3 of 6, the T/C (dose: 256.0 mg/kg/injection, schedule: Q01DX001 (ip), vehicle: saline) was 127 % of control [5 of 6 alive] and the survivor count (dose: 256.0 mg/kg/injection, schedule: Q01DX005 (ip), vehicle: saline) was 0 of 6. The survivor count (dose: 256.0 mg/kg/injection, schedule: Q01DX009 (ip), vehicle: saline) was 1 of 6, the survivor count (dose: 400.0 mg/kg/injection, schedule: Q01DX009 (ip), vehicle: saline sonified) was 0 of 6 and the survivor count (dose: 512.0 mg/kg/injection, schedule: Q01DX001 (ip), vehicle: saline) was 3 of 6. The survivor count (dose: 512.0 mg/kg/injection, schedule: Q04DX003 (ip), vehicle: saline) was 5 of 6 and the survivor count (dose: 1028.0 mg/kg/injection, schedule: Q01DX001 (ip), vehicle: saline) was 1 of 6.
In the case of `CN1CC2c3cc4c(cc3CC1c1cc3c(cc12)OCO3)OCO4` (stereo unspecified), the survivor count (dose: 400.0 mg/kg/injection, schedule: Q01DX001 (ip), vehicle: saline with Tween-80) is reported as 0 of 6.
In the case of `COc1cc2c(c(OC)c1O)-c1ccc(OC)c(=O)cc1[C@@H](NC(=O)C(F)(F)F)CC2`, the T/C (dose: 1.25 mg/kg/injection, schedule: Q01DX005 (ip), vehicle: Klucel (hydroxypropylcellulose) (HPC)) is reported as 131 % of control, the T/C (dose: 1.25 mg/kg/injection, schedule: Q01DX009 (ip), vehicle: Klucel (hydroxypropylcellulose) (HPC)) is reported as 132 % of control and the T/C (dose: 2.5 mg/kg/injection, schedule: Q01DX005 (ip), vehicle: Klucel (hydroxypropylcellulose) (HPC)) is reported as 146 % of control. The T/C (dose: 2.5 mg/kg/injection, schedule: Q01DX009 (ip), vehicle: Klucel (hydroxypropylcellulose) (HPC)) was 149 % of control, the survivor count (dose: 10.0 mg/kg/injection, schedule: Q01DX009 (ip), vehicle: Klucel (hydroxypropylcellulose) (HPC)) was 3 of 6 and the survivor count (dose: 20.0 mg/kg/injection, schedule: Q01DX005 (ip), vehicle: Klucel (hydroxypropylcellulose) (HPC)) was 5 of 6. The survivor count (dose: 20.0 mg/kg/injection, schedule: Q01DX009 (ip), vehicle: Klucel (hydroxypropylcellulose) (HPC)) was 3 of 6 and 5 of 6 and the survivor count (dose: 40.0 mg/kg/injection, schedule: Q01DX009 (ip), vehicle: Klucel (hydroxypropylcellulose) (HPC)) was 6 of 6.
With `CCN(CC)CCC(=O)c1ccccc1` the survivor count (dose: 25.0 mg/kg/injection, schedule: Q01DX009 (ip), vehicle: saline with Tween-80) was 5 of 6, the T/C [1] was 127 % of control and the survivor count [2] was 0 of 6 and 2 of 6. For the same compound, the survivor count [3] was 0 of 6.
`COc1ccc(-n2cnc3c(cnn3C)c2=O)cc1` was tested, and the survivor count [4] was 5 of 6.
`COC(=O)C1=C2Nc3ccccc3C23CCN2C(O)C4(CC5CC67CCOC6CCN6CCC8(c9cccc(OC)c9N(C4)C58O)C67)C4OCCC4(C1)C23` (stereo unspecified) was tested, and the survivor count (dose: 50.0 mg/kg/injection, schedule: Q01DX005 (ip), vehicle: Klucel (hydroxypropylcellulose) (HPC)) was 5 of 5, the survivor count (dose: 100.0 mg/kg/injection, schedule: Q01DX005 (ip), vehicle: Klucel (hydroxypropylcellulose) (HPC)) was 5 of 5 and the survivor count (dose: 200.0 mg/kg/injection, schedule: Q01DX005 (ip), vehicle: Klucel (hydroxypropylcellulose) (HPC)) was 5 of 5.
In the case of `CC1(C)CCCC2(C)C1CCC1(C)OC(/C(C=O)=C/C=O)CC12` (stereo unspecified), the survivor count (dose: 160.0 mg/kg/injection, schedule: Q01DX009 (ip), vehicle: Klucel (hydroxypropylcellulose) (HPC)) is reported as 1 of 6.
In the case of `c1ccc(-c2cnc3cccnc3n2)cc1`, the survivor count [4] is reported as 3 of 6.
For `CCn1c2ccc(C(=O)CCCN(C)C)cc2c2cc(C(=O)CCCN(C)C)ccc21`, the T/C (dose: 12.5 mg/kg/injection, schedule: Q01DX009 (ip), vehicle: saline) was 132 % of control, the T/C [5] was 129 % of control and the T/C [1] was 102, 107, 109, 122 % of control [5 of 6 alive]. The survivor count [2] was 0 of 6, 1 of 6, 2 of 6 and the survivor count [3] was 0 of 6.
For `CSc1nc(=O)[nH]nc1SCc1ccccc1`, the T/C (dose: 400.0 mg/kg/injection, schedule: Q01DX009 (ip), vehicle: Klucel (hydroxypropylcellulose) (HPC)) was 133 and 138 % of control.
For `CCCCNP(=O)(N1CC1)N1CC1`, the T/C (dose: 1.5 mg/kg/injection, schedule: Q04DX003 (ip), vehicle: saline) was 130 % of control, the T/C (dose: 3.0 mg/kg/injection, schedule: Q04DX003 (ip), vehicle: saline) was 145 % of control and the survivor count [5] was 6 of 6.
In the case of `COc1cccc2c1C(=O)c1c(O)c3c(c(O)c1C2=O)C/C(=N/O)CC3OC1CC(NC(=O)C(F)(F)F)C(O)C(C)O1` (stereo unspecified), the T/C (dose: 25.0 mg/kg/injection, schedule: Q01DX009 (ip), vehicle: other) is reported as 128 % of control.
For `C=C(C)C12CC(C)C34OC5(OC1C3C1OC1(CO)C(O)C1(O)C(OC(=O)c3ccccc3)C(C)C(C(C)CCCCCCC5O)C14)O2` (stereo unspecified), the survivor count (dose: 0.03 mg/kg/injection, schedule: Q01DX009 (ip), vehicle: distilled water + alcohol) was 4 of 6, the survivor count (dose: 0.06 mg/kg/injection, schedule: Q01DX009 (ip), vehicle: distilled water + alcohol) was 0 of 6 and the survivor count (dose: 0.12 mg/kg/injection, schedule: Q01DX009 (ip), vehicle: distilled water + alcohol) was 0 of 6. For the same compound, the survivor count (dose: 0.25 mg/kg/injection, schedule: Q01DX009 (ip), vehicle: distilled water + alcohol) was 0 of 6, the survivor count (dose: 0.5 mg/kg/injection, schedule: Q01DX009 (ip), vehicle: distilled water + alcohol) was 0 of 6 and the survivor count (dose: 1.0 mg/kg/injection, schedule: Q01DX009 (ip), vehicle: distilled water + alcohol) was 0 of 6. The T/C (dose: 15.0 micrograms/kg/injection, schedule: Q01DX009 (ip), vehicle: distilled water + alcohol) was 125 % of control.
For `CC(CN1CCOCC1)(CN1CCOCC1)[N+](=O)[O-]`, the survivor count [3] was 2 of 6.
